Some results were stated once for a whole list of compounds, not compound by compound.
Experiment: Sensory studies of coolant activity (G-180 and neoisomer vs menthol)
Format: in vivo, human
Method: The coolant properties of the materials prepared according to the present methods are evaluated using sensory studies. […] By contrast, both the G-180 and neoisomer materials provided a sensation that lasted longer than about 15 minutes. The cooling potency of the neoisomer is particularly unexpected, since stereochemistry is a major factor influencing coolant activity and potency for menthol and menthol derivatives as reported in previous studies. [See for example, R. Emberger and R. Hopp (1987), Specialty Chemicals, 7(3), 193-201; R. Eccles (1990), Chemical Senses, 2, 275-291; S. Rovner (2007), Chemical & Engineering News, 85(39), 95-98]. […] The effect on activity of these isomers is far more significant than is observed with menthol.
Sensory evaluation studies of coolant activity may be conducted using a methodology patterned after the techniques described in M. C. Meilgaard, et al., Sensory Evaluation Techniques, 4th Ed. (2007). A panel of trained sensory experts evaluates cooling sensation experienced after using a product with coolant, for example by brushing with a dentifrice or rinsing with an aqueous rinse. In one protocol, panelists brush teeth with 1.5 grams of a test dentifrice (containing coolant) or control (no coolant) and then expectorate. After brush expectoration, panelists evaluate cooling intensity, assigning a number between 0 (no cooling) to 60 (intense cooling). […]

SMILES	duration of sensation
CC(C)[C@@H]1CC[C@@H](C)C[C@H]1C(=O)Nc1ccc(CC#N)cc1 [G-180, N-[4-(cyanomethyl)phenyl]-(1R,2S,5R)-2-isopropyl-5-methylcyclohexanecarboxamide, reference compound]	> 15 min
CC(C)[C@@H]1CC[C@@H](C)C[C@@H]1C(=O)Nc1ccc(CC#N)cc1 [Neo-G-180, N-[4-(cyanomethyl)phenyl]-(1S,2S,5R)-2-isopropyl-5-methylcyclohexanecarboxamide]	> 15 min
